Test results reported in the supplement of paper PMC9454738.
Counter-ions that a name gives are not always drawn. ± gives the standard deviation of the averaged measurements. The list shows a part of the results. Repeats in this data set agree poorly, so a single value says little.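 Test systems: triple-negative MDA-MB-231 breast cancer cells and their brain-metastatic MDA-MB-231BRM derivative, each stably carrying empty vector, full-length GLI1 or truncated tGLI1. Viability after 48 h was read by CellTiter-Blue and expressed against 1% DMSO vehicle. A compound was tGLI1-selective if it lowered viability 20% more in tGLI1 cells than in vector and GLI1 cells.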

Experiments:
Assay in all cases: cell viability relative to vehicle (DMSO) control (fraction); higher = more viable cells (less growth inhibition)
Conditions in all cases: treatment time 48 h
[1] = system: MDA-MB-231 GLI1
[2] = system: MDA-MB-231 Vector
[3] = system: MDA-MB-231 tGLI1
[4] = system: MDA-MB-231BRM GLI1
[5] = system: MDA-MB-231BRM Vector
[6] = system: MDA-MB-231BRM tGLI1

SMILES	cell viability ([1]; 0.05 µM)	cell viability ([1]; 0.5 µM)	cell viability ([1]; 5 µM)	cell viability ([2]; 0.05 µM)	cell viability ([2]; 0.5 µM)	cell viability ([2]; 5 µM)	cell viability ([3]; 0.05 µM)	cell viability ([3]; 0.5 µM)	cell viability ([3]; 5 µM)	cell viability ([4]; 0.05 µM)	cell viability ([4]; 0.5 µM)	cell viability ([4]; 5 µM)	cell viability ([5]; 0.05 µM)	cell viability ([5]; 0.5 µM)	cell viability ([5]; 5 µM)	cell viability ([6]; 0.05 µM)	cell viability ([6]; 0.5 µM)	cell viability ([6]; 5 µM)
CSc1cccc(Nc2ncc3cc(-c4c(Cl)cccc4Cl)c(=O)n(C)c3n2)c1	1.05	0.386	0.0705	1.08	0.368	0.134	1.08	0.459	0.0468	1.01	0.838	0.85	1.13	0.917	0.791	0.946	0.642	0.794
CN(C)c1nc(N(C)C)nc(N(C)C)n1 [Altretamine (Hexalen)]	1.07	1.12	1.01	0.93	1.27	1.1	1.17	1.05	1.07	1.03	1.02	0.985	1.06	1.02	1.02	1.07	1.01	1.01
CN1CCN(C2CCN(C(=O)Nc3cc(Oc4ccc(NC(=O)C5(C(=O)Nc6ccc(F)cc6)CC5)c(F)c4)ccn3)CC2)CC1 [Golvatinib (E7050)]	1.01	1.07	1.01	1.01	1.06	0.766	1.02	0.999	0.744	0.974	0.973	0.915	1.06	1.03	0.898	0.987	1.01	0.833
CNC(=O)c1cc(Oc2ccc3nc(N[C@@H]4CCCC[C@H]4O)sc3c2)ccn1	1.25	1.96	1.35	0.747	0.617	0.609	0.67	0.774	0.895	0.5	0.495	0.37	0.555	0.434	0.394	0.64	0.665	0.591
N#Cc1c(NC(=O)c2cccc3ccccc23)sc2c1CCCC2 [JNK Inhibitor IX]	2.03	0.611	0.493	0.75	0.182	0.164	0.81	0.213	0.211	0.951	0.907	0.723	0.974	0.975	0.758	1.33	1.21	0.998
CCN1CCN(Cc2ccc(Nc3ncc(F)c(-c4cc(F)c5nc(C)n(C(C)C)c5c4)n3)nc2)CC1	0.977	0.918	0.163	1.14	0.81	0.231	1.02	0.82	0.152	0.969	0.919	0.82	0.9	1.04	0.846	0.96	0.951	0.762
O=C1NCCc2[nH]c(-c3ccncc3)cc21	1.3	1.24	0.185	1.31	1.2	0.281	1.43	1.1	0.227	1.03	1.09	1.01	1.11	1.16	0.953	1.13	1.19	0.894
CCn1c(-c2nonc2N)nc2c(C#CC(C)(C)O)ncc(OC[C@H]3CCCNC3)c21	1.37	1.7	1.44	1.41	1.3	1.05	1.23	1.42	0.979	0.957	0.933	0.934	0.899	0.982	0.999	0.951	0.957	0.912
CS(=O)(=O)CCNCc1ccc(-c2ccc3ncnc(Nc4ccc(OCc5cccc(F)c5)c(Cl)c4)c3c2)o1 [Lapatinib]	1.19 ± 0.35	0.825 ± 0.34	1.2 ± 0.37	1.45 ± 0.55	1.19 ± 0.16	0.915 ± 0.11	1.14 ± 0.23	1.16 ± 0.38	1.05 ± 0.3	1.03 ± 0.13	0.959 ± 0.12	0.853 ± 0.14	1.04 ± 0.16	0.893 ± 0.11	0.778 ± 0.074	0.975 ± 0.077	1.01 ± 0.15	0.79 ± 0.13
Cc1c(CN2CCN(C(=O)[C@H](C)O)CC2)sc2c(N3CCOCC3)nc(-c3cnc(N)nc3)nc12	1.06	0.666	0.243	1.04	0.598	0.495	1.21	0.542	0.25	0.971	1.02	0.809	0.958	1.02	0.73	1	0.987	0.667
C#Cc1cccc(Nc2ncnc3cc(OCCOC)c(OCCOC)cc23)c1 [Erlotinib HCl]	1.33	1.05	1.17	1.64	1.41	1.36	1.35	1.06	1.27	1.07	0.93	0.885	1.02	0.912	0.854	1.01	0.983	0.905
CS(=O)(=O)c1ccc(-c2cnc(N)c(C(=O)Nc3ccccc3)n2)cc1	2.13	2.86	1.61	1.27	1.23	0.714	1.36	1.28	0.899	0.756	0.693	0.593	0.877	0.731	0.715	1.11	1.05	1.06
N#CC1(c2ccc(NC(=O)c3cccnc3NCc3ccncc3)cc2)CCCC1 [Apatinib]	1.34	1.26	1.51	0.805	0.649	1.41	0.557	1.17	1.18	0.648	0.58	0.873	1.11	0.946	0.848	0.557	0.739	0.745
